One sequence from publication PMC10838314, “Exploring TRF2-Dependent DNA Distortion Through Single-DNA Manipulation Studies” can be followed below.

By UniProt entry, the sequences of proteins in these tests, tags left out. Residues count along the entry.
UniProt Q15554, 43-542: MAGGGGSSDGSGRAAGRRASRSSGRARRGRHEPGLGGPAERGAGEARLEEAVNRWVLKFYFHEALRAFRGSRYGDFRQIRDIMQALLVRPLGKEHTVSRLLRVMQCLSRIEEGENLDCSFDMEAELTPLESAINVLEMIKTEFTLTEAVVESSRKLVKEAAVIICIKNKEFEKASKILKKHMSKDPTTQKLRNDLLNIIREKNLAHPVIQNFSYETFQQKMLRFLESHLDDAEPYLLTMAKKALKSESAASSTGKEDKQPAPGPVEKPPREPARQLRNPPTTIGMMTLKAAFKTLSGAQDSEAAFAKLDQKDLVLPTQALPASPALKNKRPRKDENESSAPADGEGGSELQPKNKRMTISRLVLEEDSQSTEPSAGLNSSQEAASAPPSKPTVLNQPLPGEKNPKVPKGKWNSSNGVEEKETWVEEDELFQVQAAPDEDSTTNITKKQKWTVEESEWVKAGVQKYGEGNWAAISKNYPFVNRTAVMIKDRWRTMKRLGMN

The data set deals with hTRF2 full-length (Homo sapiens) (UniProt Q15554). The experiment in a line: magnetic tweezers force-extension. The note with it: compaction at 20-50 nM, 150 mM KCl, compaction abolished in 300 mM KCl without dissociation; Magnetic tweezers: 150 mM KCl (stretching); recombinant protein; residues 43-542; protein details: N-terminal His6 removed by TEV; label: 5' biotin and 3' thiol via ligated handles.

As to “CCATCGACATGGGAGCTCGCGTTGATGCATGTATGTCCCGGGTTAGGGTTAGGGTTAGGGTTAGGGTTAGGGTTAGGGTTAGGGTTAGGGTTAGGGTTAGGGTTAGGGTTAGGGTTAGGGTTAGGGTTAGGGTTAGGGTTAGGGTTAGGGTTAGGGTTAGGGTTAGGGTTAGGGTTAGGGTTAGGGTTAGGGTTATAAGTGTTGCTGCAGCCATGTCGATGG (double strand) [25-repeat telomeric dsDNA (200 bp)]”, the binding result is given as “binds”.
